Test system: MM1s-GFP cells
Test: Doxorubicin drug uptake by MM cells in 3DTEBM versus classic 2D cultures, by flow cytometry
Type: cell-based

COc1cccc2c1C(=O)c1c(O)c3c(c(O)c1C2=O)C[C@@](O)(C(=O)CO)C[C@@H]3O[C@H]1C[C@H](N)[C@H](O)[C@H](C)O1 [doxorubicin]
drug uptake of MM cells grown in 3DTEBM as a function of tissue depth (7.5 μg/ml, 4 h, 25-150 μl 3DTEBM): inversely correlated with the depth of the tissue
less drug uptake by MM cells in 3DTEBM than in classic 2D cultures (4 h treatment, all drug concentrations tested (0-10 μg/ml), p<0.02): 2 fold

Source: US10463764B2, “3D tissue-engineered bone marrow for personalized therapy and drug development” (Washington University, priority 2014, dated 2019)
